The source of these data is PubChem BioAssay AID1508600 (Functional Genomics Laboratory (NCATS/FGL), 2020).

The whole screen tested about 53,000 sequences, of which about 3,700 (7%) were called active.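 How the source made its calls: active means gene knockdowns whose robust z-score for IL-1 alpha signal is at least 2 or at most -2, so actives lie on both sides; inactive means the rest.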 Some of the results follow.

A short description of this assay: Components of the Cytosolic LPS Sensing Pathway: Gene Identification via Genome-wide siRNA Screen.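 Further: robust z of the log signal after scaling to non-targeting control siRNA wells of the plate.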 To be noted: RAW264.7 macrophages, IL-1a HTRF, actives lie on both sides, screened at 100 nM (by protocol), cells primed 5 h with Pam3CSK4 first. The essentials:
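Supernatant IL-1a by HTRF from RAW264.7 cells primed with Pam3CSK4 (5 hours) and transfected with LipidA (24 hour) after 48h siRNA knockdown at 100 nM; cell viability checked with CellTiter-Glo.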
On to GCUCAUCGUGUUUUCAACCTT against Cbr3, for which the z-score was inactive: -0.034.

Take CCAGUACCUCAAUAUCAAATT against Lsm2: the z-score was inactive: 0.533.

For the sequence GGAUCAUUAGCAAACACAATT against Capn1, the z-score is inactive: 0.104.

Take GCAUAUUUCCGAGGAUCAATT against Poglut1: the z-score is inactive: -1.14.

As for GGAAUGAACCUAUCUUAUATT against Prkab1, the z-score is inactive: 1.14.

In the case of GGCACAUUGCUGAAGCCCATT against Aldoa, the z-score was active: -2.42.

In the case of GGUAUAAUUGGAAUUGUGATT against Morc1, the z-score was inactive: -0.658.

Take GGAUUUACCACCAAUUAAATT against Vars: the z-score is inactive: -0.393.

On to GCAGCCUAUUACCUCAGACTT against Nwd2, for which the z-score was inactive: 1.02.

For the sequence GGAUUUUAAACCUUAAGGUTT against Ssty1, the z-score is inactive: 0.49.

With GGUCUUCUUGACAAUGUAATT against Bpnt1, the z-score is inactive: 0.31.

For the sequence GGACAUUGUCUAUUAUUGGTT against Gabrd, the z-score was inactive: -0.585.

As for GGUGCUUAUAUUGCUUCCCTT against Psmb5, the z-score is inactive: -0.147.

Take GAACAUGGAAAGCAGCAUUTT against Lce1m: the z-score was inactive: -0.757.

On to GAUAUGCAAGGAGGAGGCATT against Pramel37, for which the z-score is inactive: -0.229.

Take GGACUUGACCUCAAGGGAATT against Sox6: the z-score was active: 2.35.

With GCACAUAUCGUGUCUCAAATT against Plgrkt, the z-score is inactive: -0.809.

Take GACACCCUGUGACACCAAGTT against Sprr1b: the z-score was inactive: -0.597.

As to GCGCGACAACCUGAUUCAATT against Nlrx1, the z-score was inactive: -0.0305.

Consider GGAUUUGAUGUGUUCAAUGTT against Nmt2, for which the z-score is inactive: 0.48.

On to GGAUCCAUUAGUCAAGAAGTT against Ints12, for which the z-score is inactive: 0.566.

As for GGGUAUGGACCCUAUAUAATT against Osgep, the z-score is inactive: 0.2.

GGAACCUAAUUAGCAAAGCTT against Riiad1: the z-score was inactive: 0.728.

Consider GGCGACAAAAAGGCUAAGCTT against Khnyn, for which the z-score was inactive: 0.437.

With GGCAAAGAUCGCAUCUUAATT against Ago2, the z-score was inactive: 1.35.

As to GGCGUGAACCAAACAGACUTT against Calcrl, the z-score is inactive: -0.604.

GGAAUAUGCUGUCAAGAUCTT against Mknk2: the z-score is inactive: -0.322.

For the sequence GGAUAAAGGAAAAGAAACATT against Rcvrn, the z-score is inactive: -1.34.

For GGAGGAUUUCAAGACAGCATT against Tprg, the z-score is inactive: -1.12.

Regarding CCGUCUGGACAACAAACACTT against P2rx5, the z-score is inactive: 0.616.

For the sequence GGCAUUCCAGUAAAGGAGCTT against Fbxw4, the z-score was inactive: 0.147.

Turning to GCCGGUGAAUAAUCAUGCUTT against Nrn1, the z-score was inactive: 0.0683.

Regarding GGUCCUAGCUUCCUUUUACTT against Lrrc8b, the z-score is inactive: -0.0324.

For CCUUCCAGUAGUAAUUCAUTT against Hopx, the z-score is inactive: 0.396.

On to CUACUUCGAGAACAUGGGUTT against Tpgs1, for which the z-score is inactive: -0.749.

In the case of GGAAAGCAAGUCGUAAGCCTT against Mrps10, the z-score was inactive: -0.755.

Consider GGAAACUUCCCUUCCUAACTT against Snrpc, for which the z-score is inactive: -0.397.

GGAAGUCAAGUAGAACUGUTT against Agtr2: the z-score is inactive: -0.206.

With GCAGAAUAUUAACCAGUGUTT against Ptp4a2, the z-score was inactive: 1.15.

For GCCUAUGCAGCUCUCUCUGTT against Acat3, the z-score was inactive: 0.772.

For CGGUUUUGACCUUCCACCUTT against Olfr110, the z-score is inactive: 0.451.

As to GGAGAUACAGAAAUUUCUCTT against Baat, the z-score was inactive: 0.847.

For GGGAAGGCUGUGAAUACAGTT against Syt7, the z-score was inactive: 1.87.

Consider GGUCAGCAGUUUUCUAACUTT against Mtus2, for which the z-score was inactive: -1.95.

On to GGGUAGAGACUACUUAGUATT against Pramel7, for which the z-score was inactive: 0.623.

On to GGAUACCUAUCUGCACUUCTT against Prss52, for which the z-score was inactive: -1.74.

Consider “GGUUUUUGAAGAGUUAACATT against D16Ertd472e”, for which the z-score was inactive: 0.0461.

Turning to GGACUUACAUGGAAUUUUATT against Eftud2, the z-score was active: -2.07.

As for GCAUGUAUGCUGGAAAAUCTT against Zfp942, the z-score is inactive: -0.403.

Turning to GCAGAGGCUCUCCUUAUAGTT against Ccser2, the z-score was inactive: 0.747.

Regarding CGAACCACUUGUUUAAAAUTT against Cops2, the z-score was inactive: 0.306.

In the case of GGAUCUUUCCUGAUUUAUATT against Ggt5, the z-score is inactive: 0.989.

Consider GGCCUUUAAGACCAUUCGATT against Scyl1, for which the z-score is inactive: 0.252.

GGGCUAGCUAACCACAAUUTT against Glipr2: the z-score was inactive: 0.818.

On to GGCCUUAGUUUAUACAUGUTT against Dusp18, for which the z-score was inactive: 0.628.

Turning to GGGCUGACUGUGAAGUAUGTT against Cdnf, the z-score was inactive: 1.44.

Regarding GCAAUUGUUAGAAAAAGGGTT against Rnasel, the z-score is inactive: -0.382.

On to GGAUGGACCUGUUGUGAUUTT against Ssr2, for which the z-score is inactive: 1.47.

On to GGCUGCUGAUUAUAUGUUCTT against Sprr2e, for which the z-score was inactive: 0.842.

Consider GGAUAACCUUUUUGAAUGGTT against Ube2j1, for which the z-score is inactive: 0.137.

Turning to GGAGUUUAAUUACCAAACATT against Edrf1, the z-score is inactive: -0.747.

With GGUGAGCGACAAUAUGAGUTT against Fsd1, the z-score was inactive: -0.091.

For the sequence GGAGAGAAUAAGAAGAAGATT against Ptprc, the z-score was inactive: 0.115.

Regarding GGACUUUCUAAAUAGCUUCTT against Gucy1a1, the z-score was inactive: 0.883.

Turning to GGCUUUUGACAAGCAUAUGTT against Snrpn, the z-score is inactive: -0.419.

In the case of GGGUAUAGAAUUGUCUAUUTT against Fn1, the z-score is inactive: 1.19.

Consider GGUAUGUCUGCAUAAAUGUTT against Cyp2c38, for which the z-score was active: 2.74.

Regarding GGGUAGCUUUAAAUAAAGGTT against Olfr801, the z-score was active: 2.47.

On to GUACCUAGGCAUCAAUGUCTT against Trhr2, for which the z-score was inactive: -0.514.
